In PubChem BioAssay AID504467 (National Center for Advancing Translational Sciences (NCATS), 2011):
About 7,700 (2.3%) of roughly 330,000 compounds were called active. The shares of active, inactive and inconclusive entries below differ from those in the screen. The call rests on the fitted dose curve; in most records, active means well fitted inhibition curve with a large enough effect; inconclusive means small, poorly fitted or top-dose-only effect, or effect the other way; inactive means flat fitted curve, though single readings scatter. Where the call is inconclusive, the potency comes from a doubtful curve fit.

Test: qHTS screen for small molecules that inhibit ELG1-dependent DNA repair in human embryonic kidney (HEK293T) cells expressing luciferase-tagged ELG1; further: nearly all actives have a fitted effect of over 55% in size
Settings: HEK293T ELG1-luciferase reporter, luminescence, 16 h, DNA damage induced by 5-fluorouridine; series mostly up to 46.1 µM
In short: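 Quantitative HTS, concentration-response format. 2,000 cells/well co-treated with 5-fluorouridine and compound, 16 hr in 5% CO2 at 37 °C; ONE-Glo luminescence read after 30 min.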
Potency means the concentration at half of the fitted maximal effect.

SMILES	Potency
N#CC1=C(N)c2ccccc2CC12CCCCC2	inactive
COc1cc(NC(=O)c2ccc([N+](=O)[O-])cc2)ccc1NC(=O)C(C)C	inconclusive: 2.06 µM [inhibitor, full curve]
CCOC(=O)N1CCN(C(=O)C(CC(C)C)NS(=O)(=O)c2ccc(C)cc2)CC1 (configuration not stated)	inactive
O=C(CCC(=O)Nc1ccc(Br)cc1)N/N=C/c1ccccc1O	inconclusive: 6.51 µM [inhibitor, single point]
O=C1OCc2cc(NC(=O)C3CCCCC3)ccc21	inconclusive: 18.4 µM [activator, partial curve, poor fit]
O=C(CSc1ccccn1)N1CCc2ccccc21	inconclusive: 10.3 µM [activator, partial curve]
Cc1cc(C)nc(CCNC(=O)c2cc(COc3ccccc3)on2)n1	inconclusive: 18.3 µM [activator, single point]
CC(N=C1NS(=O)(=O)c2ccccc21)C(=O)N1CCc2ccccc2C1 (configuration not stated)	inactive
Cc1ccc(-c2nnc(Nc3ccc4c(c3)OCO4)c3ccccc23)cc1S(N)(=O)=O	active: 16.4 µM
C=CCNC(=S)Nc1sc2c(c1C(N)=O)CCCC2	inconclusive: 13 µM [activator, partial curve, poor fit]
Cc1ccc(S(=O)(=O)NC2=NCN(C(C)C)CN2)cc1	inactive
CCc1ccc(NC(=O)C(C)OC(=O)c2ccc(N3CCCC3)c([N+](=O)[O-])c2)cc1 (configuration not stated)	inconclusive: 29.1 µM [inhibitor, single point]
CC(C)C(OC(=O)c1cc2occc2n1C)C(=O)NCc1ccc2c(c1)OCO2 (configuration not stated)	inconclusive: 29.1 µM [inhibitor, single point]
CN1C(=O)CSc2ccc(NC(=O)NCc3cccnc3)cc21	inconclusive: 29.1 µM [activator, single point]
CCc1ccc(NC(=O)c2ccc3c(c2)C(=O)N(CCOC)C3Nc2ccc(CC)cc2)cc1 (configuration not stated)	inconclusive: 25.9 µM [activator, partial curve]
N#Cc1c(N)n(CCOC(=O)c2ccc(Cl)cc2)c2nc3ccccc3nc12	inconclusive: 10 µM [inhibitor, partial curve, poor fit]
COCCn1c(C)c(C)c(S(=O)(=O)c2ccccc2)c1N	inactive
FC(F)(F)c1cccc(NC(=S)NNC(=S)NCc2ccccc2)c1	inconclusive: 20.6 µM [activator, partial curve, poor fit]
Cc1ccccc1NC(=O)c1ccccc1-c1ccccc1	inactive
O=C(O)c1cccc(N2C(=O)/C(=C/c3ccc([N+](=O)[O-])cc3)C=C2c2ccccc2)c1	inconclusive: 29.1 µM [inhibitor, single point]
O=C(c1ccncc1)N1CCN(S(=O)(=O)c2cccc(Cl)c2)CC1	inactive
COc1cccc(NC(=O)CN2CCN(S(=O)(=O)c3ccc(C(C)C)cc3)CC2)c1	inconclusive: 29.1 µM [inhibitor, single point]
COc1ccc(/C=N/NC(=O)c2ccoc2C)cc1O	inconclusive: 20.6 µM [activator, partial curve]

In the list so far, 2 have a Cl atom.
SMILES	Potency
N#Cc1c(N)n(CCOC(=O)c2ccc(Cl)cc2)c2nc3ccccc3nc12	inconclusive: 10 µM [inhibitor, partial curve, poor fit]
O=C(c1ccncc1)N1CCN(S(=O)(=O)c2cccc(Cl)c2)CC1	inactive

Next records.

SMILES	Potency
CC(C)(C)OC(=O)NN1CC(=O)N2Cc3ccccc3C[C@@H]2C1=O	inactive
O=C(Nc1ccc(-c2csc(Nc3ccc(Cl)cc3)n2)cc1)c1cc([N+](=O)[O-])cc(C(F)(F)F)c1	inconclusive: 1.3 µM [inhibitor, full curve, poor fit]
CSCC(=O)NCC1(N(C)Cc2ccccc2)Cc2ccccc2C1	inactive
N#Cc1ccc(C(=O)Nc2cc(-c3ccccc3)nn2-c2ccccc2)cc1	inconclusive: 23.1 µM [inhibitor, single point]
O=C(/C=C/c1ccc2c(c1)OCO2)Nc1nncs1	inactive
COc1ccc(/C=C2\SC(=S)N(CCC(=O)N3CCCCC3CCO)C2=O)cc1 (configuration not stated)	inconclusive: 18.3 µM [inhibitor, single point]
COc1cc2cnc(-c3ccccc3)c(-c3ccc([N+](=O)[O-])cc3)c2cc1OC	inconclusive: 20.6 µM [inhibitor, single point]
CCc1nc2ccccc2c(C(=O)OCC(=O)NCc2ccco2)c1C	inactive
NC(=O)C1(NC(=O)[C@@H]2CC3(CC(c4cccc(NC(=O)c5cc([N+](=O)[O-])cc([N+](=O)[O-])c5)c4)=NO3)CN2C(=O)c2ccccc2)CC1 (some centres not stated)	inconclusive: 13 µM [inhibitor, partial curve]
CCOc1cc(Br)c(Br)c(C=Nc2ccc(NC(C)=O)cc2)c1O	inactive
Cc1ccc2nc(-c3cccc(NS(C)(=O)=O)c3)cc(-c3ccccc3)c2c1	inconclusive: 25.9 µM [inhibitor, partial curve, poor fit]
COc1ccc(C2CC(c3ccccc3)=NN2S(=O)(=O)c2ccccc2)cc1 (configuration not stated)	inconclusive: 7.3 µM [inhibitor, partial curve, poor fit]
CCOc1ccc(NC(=O)c2cnsn2)cc1	inconclusive: 3.66 µM [activator, full curve]
Cc1cc(C(=O)N/N=C/C=C/c2ccc(Br)cc2)n[nH]1	inactive
Cc1ccc(NC(=O)c2ccc(OCc3c(C)noc3C)cc2)cc1	inconclusive: 23.1 µM [inhibitor, single point]
C/C(=N\NC(=O)c1ccccc1[N+](=O)[O-])c1c(O)cc(C)oc1=O	inactive
CC(=O)c1cn(Cc2ccccc2)c(=O)n(Cc2ccc(F)cc2)c1=O	inconclusive: 18.3 µM [inhibitor, single point]
CCn1nc(C(=O)NNC(=O)CCOc2cc(C)ccc2C)c2ccccc2c1=O	inactive
CC(=O)c1c(C)[nH]c(C(=O)CSc2nnc3ccccn23)c1C	inconclusive: 20.6 µM [activator, single point]
Cc1nc2ccc(NC(=O)c3ccc(S(=O)(=O)N(C)c4ccccc4)cc3)cc2s1	inconclusive: 5.17 µM [inhibitor, partial curve, poor fit]
COc1cc(C(=O)ON=C2C=C(C)C(=O)C(C)=C2)cc(OC)c1OC	inconclusive: 23.1 µM [activator, single point]
COC(=O)c1c(N2C(=O)[C@H]3[C@@H](C2=O)[C@]2(C(=O)Nc4c2ccc(C)c4C)N2CCC[C@@H]32)sc(C)c1C	active: 6.51 µM
Cc1nn(Cc2ccc(Cl)c(Cl)c2)c(C)c1NC(=O)c1sc2ccccc2c1Cl	inconclusive: 14.6 µM [inhibitor, partial curve, poor fit]

Some of these compounds in order of molar mass, rising.
SMILES	Potency
O=C(/C=C/c1ccc2c(c1)OCO2)Nc1nncs1	inactive
COc1cc(C(=O)ON=C2C=C(C)C(=O)C(C)=C2)cc(OC)c1OC	inconclusive: 23.1 µM [activator, single point]
CCOc1cc(Br)c(Br)c(C=Nc2ccc(NC(C)=O)cc2)c1O	inactive

(listing goes on)

SMILES	Potency
Cc1cccc(C)c1NC(=O)/C(C#N)=C/c1cccs1	inactive
COc1cc(C(=S)N2CCOCC2)cc(OC)c1OS(=O)(=O)c1ccc(NC(C)=O)cc1	inconclusive: 18.4 µM [inhibitor, single point]
NC(=O)c1c(NC(=O)c2cc3ccccc3o2)sc2c1CCC2	inconclusive: 0.316 µM [activator, full curve, poor fit]
COc1c2c(cc3oc(CO[C@@H]4O[C@H](CO)[C@@H](O)[C@H](O)[C@H]4O)cc(=O)c13)O[C@H](C(C)(C)O)C2	inconclusive: 10.3 µM [activator, partial curve]
COc1ccc(NC(=O)COC(=O)c2cc(OC)c(OC)cc2NC(=O)c2ccco2)cc1OC	active: 23.1 µM
CCOC(=O)N1N=C(c2ccc(OC)cc2)CC1(O)C(F)(F)F (configuration not stated)	inconclusive: 2.59 µM [activator, partial curve]
O=C(CSc1ccc2nnc(-c3ccccn3)n2n1)Nc1ccccc1F	inactive
O=C(Cc1ccccc1[N+](=O)[O-])Nc1ccc2c(c1)OCCO2	inconclusive: 16.4 µM [activator, partial curve]
CCOC(=O)CNC(=O)c1sc2nc(C)cc(C)c2c1N	inconclusive: 18.4 µM [activator, single point]
CC(=O)c1sc(-c2cccc(Cl)c2)nc1C	inconclusive: 18.3 µM [activator, single point]
CC(C)Cc1nc2oc3c(N4CCN(CCO)CC4)ncnc3c2c2c1CCCC2	inconclusive: 16.4 µM [inhibitor, partial curve, poor fit]
Cc1ccnc(NC(=O)Cc2ccc(-c3ccccc3)cc2)c1	inconclusive: 2.31 µM [activator, partial curve]
CCOC(=O)COc1ccc2ccccc2c1/C=C/[N+](=O)[O-]	inconclusive: 29.1 µM [inhibitor, single point]
O=C(NCc1ccccn1)Nc1ccccc1F	inconclusive: 23.1 µM [activator, single point]
Cc1ccc(-c2cnc3ccccc3n2)cc1C	inconclusive: 1.83 µM [activator, full curve]
O=C(CSc1ncccn1)NCc1cccc(Cl)c1	inconclusive: 29.1 µM [activator, single point]
COc1ccc(O[C@H]2C=C[C@@H](c3ccccc3)O[C@@H]2COC(=O)CC/C(C)=N/O[C@@H](C)c2cn([C@H](CO)Cc3ccccc3)nn2)cc1	inconclusive: 29.1 µM [inhibitor, single point]
CCS(=O)(=O)C1=NSC2=NC(=O)/C(=C\c3ccc(OC(=O)c4ccco4)c(OC)c3)C(=N)N21	inactive
O=c1cccc2c1c1cc[nH]c3ccc(=O)n2c31	inconclusive: 9.2 µM [inhibitor, partial curve]
CSCCC(NC(=O)COc1ccccc1)C(=O)N1CCN(C(C)=O)CC1 (configuration not stated)	inactive
COc1cccc(CN2CC(C(=O)NCCCc3ccc(C)cc3)CCC2=O)c1 (configuration not stated)	inconclusive: 9.2 µM [activator, partial curve]
